Test [1] addresses T1, Lrig3-flag (mouse Lrig3, full length cDNA in pcDNA3.1+, flag tag after the signal sequence) (mouse) (UniProt Q6P1C6).
T1 sequence: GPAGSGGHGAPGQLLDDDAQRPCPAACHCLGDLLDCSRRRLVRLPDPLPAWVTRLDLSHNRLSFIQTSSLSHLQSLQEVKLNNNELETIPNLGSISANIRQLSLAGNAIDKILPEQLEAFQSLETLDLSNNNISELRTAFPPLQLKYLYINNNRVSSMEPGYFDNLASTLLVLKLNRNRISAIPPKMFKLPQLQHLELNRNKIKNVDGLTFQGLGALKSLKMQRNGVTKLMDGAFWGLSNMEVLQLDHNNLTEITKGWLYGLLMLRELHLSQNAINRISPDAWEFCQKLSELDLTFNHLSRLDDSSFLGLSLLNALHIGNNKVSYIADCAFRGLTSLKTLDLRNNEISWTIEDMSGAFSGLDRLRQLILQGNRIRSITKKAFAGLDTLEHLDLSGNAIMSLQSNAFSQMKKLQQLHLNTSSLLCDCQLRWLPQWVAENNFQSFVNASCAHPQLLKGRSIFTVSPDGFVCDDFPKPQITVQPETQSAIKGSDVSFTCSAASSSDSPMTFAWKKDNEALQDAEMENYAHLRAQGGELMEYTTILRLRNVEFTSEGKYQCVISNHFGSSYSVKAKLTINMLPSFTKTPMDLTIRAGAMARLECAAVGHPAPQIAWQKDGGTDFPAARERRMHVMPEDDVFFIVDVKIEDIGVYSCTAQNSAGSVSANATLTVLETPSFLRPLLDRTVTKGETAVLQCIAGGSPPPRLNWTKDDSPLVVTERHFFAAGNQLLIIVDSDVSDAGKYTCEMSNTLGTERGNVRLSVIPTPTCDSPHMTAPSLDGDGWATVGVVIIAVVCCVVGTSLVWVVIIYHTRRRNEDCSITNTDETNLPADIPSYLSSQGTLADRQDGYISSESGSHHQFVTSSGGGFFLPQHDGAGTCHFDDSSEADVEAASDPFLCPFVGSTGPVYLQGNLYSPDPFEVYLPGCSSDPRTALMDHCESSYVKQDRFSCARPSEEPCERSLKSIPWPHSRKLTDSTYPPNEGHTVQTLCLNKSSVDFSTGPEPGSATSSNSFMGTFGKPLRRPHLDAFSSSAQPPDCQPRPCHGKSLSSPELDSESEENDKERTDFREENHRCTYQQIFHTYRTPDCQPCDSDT
As to the kind of experiment: co-IP; HEK293T cells co-transfected with an ErbB receptor and flag-tagged Lrig1 or Lrig3; lysis in 20 mM Tris pH 7.4, 150 mM NaCl, 1% TritonX-100; immunoprecipitated with agarose-conjugated anti-flag (M2) overnight at 4°C, blotted with anti-ErbB; cells in the absence or presence of ligand (200 ng/ml EGF or 1 nM NRG1, 10 min).

Chains of the proteins cited; added tags and fusions are not shown. Residues count along the entry.
UniProt Q15303, residues 26-1308: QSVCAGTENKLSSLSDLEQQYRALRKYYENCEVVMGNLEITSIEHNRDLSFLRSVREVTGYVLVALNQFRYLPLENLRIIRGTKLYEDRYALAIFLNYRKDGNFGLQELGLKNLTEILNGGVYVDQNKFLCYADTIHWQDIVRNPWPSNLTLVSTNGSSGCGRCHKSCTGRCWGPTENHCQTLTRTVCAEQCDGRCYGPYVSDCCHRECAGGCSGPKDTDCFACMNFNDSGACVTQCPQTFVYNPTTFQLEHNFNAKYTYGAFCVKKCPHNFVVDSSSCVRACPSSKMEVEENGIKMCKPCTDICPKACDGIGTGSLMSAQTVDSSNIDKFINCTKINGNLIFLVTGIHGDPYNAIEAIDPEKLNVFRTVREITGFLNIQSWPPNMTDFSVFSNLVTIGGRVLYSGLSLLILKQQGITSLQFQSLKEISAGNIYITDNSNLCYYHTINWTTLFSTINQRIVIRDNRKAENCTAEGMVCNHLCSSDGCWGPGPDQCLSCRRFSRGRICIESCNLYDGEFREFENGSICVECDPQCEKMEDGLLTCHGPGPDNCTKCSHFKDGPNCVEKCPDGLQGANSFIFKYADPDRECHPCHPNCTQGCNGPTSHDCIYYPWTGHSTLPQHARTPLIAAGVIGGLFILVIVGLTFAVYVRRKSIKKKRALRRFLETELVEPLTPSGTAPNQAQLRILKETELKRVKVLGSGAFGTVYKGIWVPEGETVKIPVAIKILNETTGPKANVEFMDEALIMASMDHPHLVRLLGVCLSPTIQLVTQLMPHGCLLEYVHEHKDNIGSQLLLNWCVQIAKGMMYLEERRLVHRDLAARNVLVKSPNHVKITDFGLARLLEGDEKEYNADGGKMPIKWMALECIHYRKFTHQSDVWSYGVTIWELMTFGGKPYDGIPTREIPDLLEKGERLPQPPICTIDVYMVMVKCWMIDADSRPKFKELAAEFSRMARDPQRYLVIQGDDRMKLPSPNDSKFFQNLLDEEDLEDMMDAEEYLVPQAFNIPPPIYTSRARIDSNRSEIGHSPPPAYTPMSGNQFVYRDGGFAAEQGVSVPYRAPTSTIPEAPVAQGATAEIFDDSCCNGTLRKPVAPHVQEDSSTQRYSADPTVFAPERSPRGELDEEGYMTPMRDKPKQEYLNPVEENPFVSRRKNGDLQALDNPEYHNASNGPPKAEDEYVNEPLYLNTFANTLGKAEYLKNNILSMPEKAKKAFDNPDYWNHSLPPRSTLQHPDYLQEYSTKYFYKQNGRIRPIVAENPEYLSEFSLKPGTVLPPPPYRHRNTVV

Test [2] addresses T2, human N'flag-Lrig1 (human) (UniProt Q96JA1).
T2 sequence: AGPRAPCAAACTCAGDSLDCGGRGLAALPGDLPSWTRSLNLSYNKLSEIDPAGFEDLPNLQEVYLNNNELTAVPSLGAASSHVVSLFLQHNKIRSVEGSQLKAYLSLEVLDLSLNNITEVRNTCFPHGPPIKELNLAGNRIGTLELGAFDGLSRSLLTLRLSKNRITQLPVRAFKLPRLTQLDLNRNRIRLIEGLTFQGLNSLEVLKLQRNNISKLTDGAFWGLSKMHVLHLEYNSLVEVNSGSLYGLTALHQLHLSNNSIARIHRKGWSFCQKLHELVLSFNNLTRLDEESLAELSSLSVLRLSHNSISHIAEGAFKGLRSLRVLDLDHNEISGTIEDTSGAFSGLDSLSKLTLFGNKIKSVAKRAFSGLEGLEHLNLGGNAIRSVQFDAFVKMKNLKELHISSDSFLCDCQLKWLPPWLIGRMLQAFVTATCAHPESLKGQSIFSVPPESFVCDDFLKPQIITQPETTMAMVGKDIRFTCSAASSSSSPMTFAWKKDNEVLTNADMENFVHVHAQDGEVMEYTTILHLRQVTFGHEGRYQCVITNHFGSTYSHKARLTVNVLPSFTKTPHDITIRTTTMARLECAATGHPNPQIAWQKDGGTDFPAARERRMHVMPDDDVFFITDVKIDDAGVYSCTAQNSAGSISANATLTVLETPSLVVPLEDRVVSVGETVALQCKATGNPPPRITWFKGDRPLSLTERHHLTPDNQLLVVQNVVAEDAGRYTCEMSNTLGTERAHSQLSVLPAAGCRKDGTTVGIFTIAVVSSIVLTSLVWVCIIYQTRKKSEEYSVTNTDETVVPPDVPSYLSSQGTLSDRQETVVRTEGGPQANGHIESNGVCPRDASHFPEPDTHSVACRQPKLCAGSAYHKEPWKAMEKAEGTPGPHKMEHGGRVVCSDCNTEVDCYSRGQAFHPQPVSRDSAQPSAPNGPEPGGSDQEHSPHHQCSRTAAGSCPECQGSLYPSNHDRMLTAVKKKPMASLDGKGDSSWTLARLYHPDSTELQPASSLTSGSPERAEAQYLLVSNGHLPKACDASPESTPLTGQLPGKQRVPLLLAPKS
The test is described as above.

These results are taken from publication PMC2813878.

Results are given in words; binding and its absence hold for the method and conditions named. In cells and extracts the contact can be indirect. Some entries that bind do so weakly or less than the wild type. Sequences can lack the tags named with a protein.

“EGFR (from UniProt P00533 25-1210) (receptor)”: the binding entry in test [1] is listed as “binds”.
For the substance “ErbB2 (from UniProt P04626 23-1255) (receptor)”, the binding result in test [1] and in test [2] was “binds” throughout.
Take “ErbB4 (from UniProt Q15303 26-1308) (receptor)”: the binding entry in test [1] and in test [2] was “binds” in each case.
